Laboratory results from the supplement of paper PMC10849652.
This is one part of the list.

Protein sequences, listed by entry. Tags and fused reporters are not part of them. Lines headed by an entry give the natural chain unless they say otherwise; changes in a name come on top.
UniProt Q86UD1: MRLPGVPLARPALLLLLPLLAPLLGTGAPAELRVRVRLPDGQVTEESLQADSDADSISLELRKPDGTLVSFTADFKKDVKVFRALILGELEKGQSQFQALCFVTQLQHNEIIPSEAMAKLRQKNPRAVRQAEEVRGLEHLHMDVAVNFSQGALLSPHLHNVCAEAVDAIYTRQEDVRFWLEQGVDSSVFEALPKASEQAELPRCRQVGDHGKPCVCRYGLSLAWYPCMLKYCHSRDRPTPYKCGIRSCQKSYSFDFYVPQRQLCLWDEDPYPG
UniProt Q5BKU9: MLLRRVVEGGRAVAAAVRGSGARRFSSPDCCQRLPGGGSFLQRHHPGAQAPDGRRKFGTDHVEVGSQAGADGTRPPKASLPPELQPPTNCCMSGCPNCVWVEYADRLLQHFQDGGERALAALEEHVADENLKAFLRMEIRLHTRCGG
UniProt O75781: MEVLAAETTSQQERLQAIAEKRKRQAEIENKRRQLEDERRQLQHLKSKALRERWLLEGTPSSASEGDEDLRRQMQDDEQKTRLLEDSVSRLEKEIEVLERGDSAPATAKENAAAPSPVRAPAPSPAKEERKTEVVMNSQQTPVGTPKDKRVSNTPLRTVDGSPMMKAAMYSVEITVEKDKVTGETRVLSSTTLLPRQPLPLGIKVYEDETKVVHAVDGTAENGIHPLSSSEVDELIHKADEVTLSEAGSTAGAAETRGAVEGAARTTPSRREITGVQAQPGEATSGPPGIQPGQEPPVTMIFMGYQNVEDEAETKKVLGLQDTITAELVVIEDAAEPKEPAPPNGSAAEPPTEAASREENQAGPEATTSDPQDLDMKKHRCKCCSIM
UniProt Q8N573: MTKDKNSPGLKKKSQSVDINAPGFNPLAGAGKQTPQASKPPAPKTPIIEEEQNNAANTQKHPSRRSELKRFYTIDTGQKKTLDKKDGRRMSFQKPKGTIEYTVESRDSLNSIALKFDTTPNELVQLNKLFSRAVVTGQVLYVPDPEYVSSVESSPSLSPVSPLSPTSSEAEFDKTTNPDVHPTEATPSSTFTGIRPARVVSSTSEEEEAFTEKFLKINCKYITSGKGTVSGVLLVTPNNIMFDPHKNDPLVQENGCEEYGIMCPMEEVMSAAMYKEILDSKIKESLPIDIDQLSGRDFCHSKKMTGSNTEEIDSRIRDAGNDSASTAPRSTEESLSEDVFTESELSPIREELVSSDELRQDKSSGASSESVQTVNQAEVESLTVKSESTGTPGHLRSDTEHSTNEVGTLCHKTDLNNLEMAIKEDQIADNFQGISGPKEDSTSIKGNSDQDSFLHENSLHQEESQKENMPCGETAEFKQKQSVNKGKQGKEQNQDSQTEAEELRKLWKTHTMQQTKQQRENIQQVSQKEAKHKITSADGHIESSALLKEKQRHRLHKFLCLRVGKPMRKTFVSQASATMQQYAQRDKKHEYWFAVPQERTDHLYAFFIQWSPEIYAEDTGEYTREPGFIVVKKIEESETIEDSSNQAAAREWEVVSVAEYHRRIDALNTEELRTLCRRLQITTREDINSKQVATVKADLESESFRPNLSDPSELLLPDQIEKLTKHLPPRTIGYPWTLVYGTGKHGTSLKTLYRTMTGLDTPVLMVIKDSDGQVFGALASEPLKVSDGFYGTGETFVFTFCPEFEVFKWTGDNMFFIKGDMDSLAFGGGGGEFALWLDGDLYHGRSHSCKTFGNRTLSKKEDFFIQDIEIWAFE
UniProt Q9P0S3: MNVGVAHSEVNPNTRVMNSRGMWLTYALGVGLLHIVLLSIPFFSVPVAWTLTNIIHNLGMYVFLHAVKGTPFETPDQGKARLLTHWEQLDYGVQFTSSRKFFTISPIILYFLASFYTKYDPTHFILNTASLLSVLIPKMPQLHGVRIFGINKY
UniProt Q13438: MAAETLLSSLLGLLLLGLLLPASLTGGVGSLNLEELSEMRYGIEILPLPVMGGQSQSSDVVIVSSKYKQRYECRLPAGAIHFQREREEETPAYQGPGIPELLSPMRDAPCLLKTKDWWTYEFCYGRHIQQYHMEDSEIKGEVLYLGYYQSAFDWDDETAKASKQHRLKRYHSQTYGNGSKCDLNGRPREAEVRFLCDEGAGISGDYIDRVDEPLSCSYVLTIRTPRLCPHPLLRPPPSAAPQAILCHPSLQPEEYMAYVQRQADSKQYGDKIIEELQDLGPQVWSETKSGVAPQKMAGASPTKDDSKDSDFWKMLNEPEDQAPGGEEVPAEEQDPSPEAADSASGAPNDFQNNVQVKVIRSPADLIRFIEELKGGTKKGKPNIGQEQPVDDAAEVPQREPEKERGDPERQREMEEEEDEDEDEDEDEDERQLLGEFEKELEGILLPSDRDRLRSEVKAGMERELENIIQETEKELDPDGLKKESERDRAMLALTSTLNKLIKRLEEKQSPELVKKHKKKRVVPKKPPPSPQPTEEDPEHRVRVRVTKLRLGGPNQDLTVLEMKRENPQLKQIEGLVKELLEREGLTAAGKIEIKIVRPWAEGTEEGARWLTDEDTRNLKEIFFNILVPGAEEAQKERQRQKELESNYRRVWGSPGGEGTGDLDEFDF
UniProt Q8IVL6: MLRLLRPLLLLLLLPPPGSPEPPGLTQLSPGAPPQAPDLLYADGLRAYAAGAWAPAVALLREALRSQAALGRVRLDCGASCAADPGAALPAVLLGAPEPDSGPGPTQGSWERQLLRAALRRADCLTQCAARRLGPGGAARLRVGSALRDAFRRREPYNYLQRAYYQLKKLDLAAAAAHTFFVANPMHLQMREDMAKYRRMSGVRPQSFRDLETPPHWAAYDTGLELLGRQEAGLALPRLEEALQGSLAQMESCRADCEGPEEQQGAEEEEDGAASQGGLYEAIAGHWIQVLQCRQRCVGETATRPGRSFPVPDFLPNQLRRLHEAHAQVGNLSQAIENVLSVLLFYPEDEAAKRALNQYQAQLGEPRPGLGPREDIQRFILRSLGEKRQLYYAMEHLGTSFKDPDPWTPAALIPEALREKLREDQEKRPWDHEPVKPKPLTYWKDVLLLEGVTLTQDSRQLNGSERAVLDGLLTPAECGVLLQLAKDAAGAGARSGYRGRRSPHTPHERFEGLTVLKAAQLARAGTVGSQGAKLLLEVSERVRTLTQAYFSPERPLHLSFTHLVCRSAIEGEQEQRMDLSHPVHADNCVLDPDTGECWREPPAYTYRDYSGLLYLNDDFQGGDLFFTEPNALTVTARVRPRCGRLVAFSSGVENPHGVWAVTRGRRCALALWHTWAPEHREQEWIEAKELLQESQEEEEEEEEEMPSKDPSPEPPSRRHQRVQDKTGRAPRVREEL
UniProt O75665: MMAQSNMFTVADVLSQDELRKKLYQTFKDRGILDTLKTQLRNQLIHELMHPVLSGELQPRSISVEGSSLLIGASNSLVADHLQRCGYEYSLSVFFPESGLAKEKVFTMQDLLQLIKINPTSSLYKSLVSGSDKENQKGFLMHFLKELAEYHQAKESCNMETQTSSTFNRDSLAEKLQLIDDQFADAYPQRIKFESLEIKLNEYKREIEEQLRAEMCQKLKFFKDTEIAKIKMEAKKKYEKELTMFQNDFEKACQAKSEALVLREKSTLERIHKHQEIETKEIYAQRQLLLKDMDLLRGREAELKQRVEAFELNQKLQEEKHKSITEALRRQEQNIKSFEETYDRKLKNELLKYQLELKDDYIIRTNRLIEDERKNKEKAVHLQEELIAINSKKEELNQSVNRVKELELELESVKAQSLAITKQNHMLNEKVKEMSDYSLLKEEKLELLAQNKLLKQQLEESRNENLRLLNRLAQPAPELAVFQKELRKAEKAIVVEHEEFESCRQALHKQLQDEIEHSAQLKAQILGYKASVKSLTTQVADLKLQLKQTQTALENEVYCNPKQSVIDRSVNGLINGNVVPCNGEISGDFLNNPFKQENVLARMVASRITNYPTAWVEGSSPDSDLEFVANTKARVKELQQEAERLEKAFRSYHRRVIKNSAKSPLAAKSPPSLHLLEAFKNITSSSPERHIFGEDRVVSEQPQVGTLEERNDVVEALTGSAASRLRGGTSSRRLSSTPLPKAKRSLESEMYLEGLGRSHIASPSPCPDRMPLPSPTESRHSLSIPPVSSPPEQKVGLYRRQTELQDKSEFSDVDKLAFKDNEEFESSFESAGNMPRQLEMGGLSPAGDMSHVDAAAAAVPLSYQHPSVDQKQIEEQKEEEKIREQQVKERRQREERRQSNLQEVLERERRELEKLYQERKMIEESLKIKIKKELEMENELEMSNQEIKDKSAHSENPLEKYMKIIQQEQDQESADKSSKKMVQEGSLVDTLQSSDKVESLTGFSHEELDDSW
UniProt P13674: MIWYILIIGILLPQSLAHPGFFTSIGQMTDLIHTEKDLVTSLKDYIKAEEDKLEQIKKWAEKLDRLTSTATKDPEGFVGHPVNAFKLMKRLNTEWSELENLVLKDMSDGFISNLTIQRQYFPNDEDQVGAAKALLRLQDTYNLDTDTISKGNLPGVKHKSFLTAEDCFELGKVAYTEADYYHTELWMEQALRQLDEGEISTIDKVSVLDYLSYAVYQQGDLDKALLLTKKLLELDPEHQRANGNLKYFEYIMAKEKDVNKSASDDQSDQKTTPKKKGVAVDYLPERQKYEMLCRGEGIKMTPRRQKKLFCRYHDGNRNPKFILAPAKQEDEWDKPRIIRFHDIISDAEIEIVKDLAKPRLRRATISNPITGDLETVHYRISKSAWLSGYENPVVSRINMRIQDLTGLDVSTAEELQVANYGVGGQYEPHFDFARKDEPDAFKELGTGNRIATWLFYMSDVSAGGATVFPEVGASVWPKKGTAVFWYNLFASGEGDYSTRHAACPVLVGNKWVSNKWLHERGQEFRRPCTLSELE
UniProt Q86WK9: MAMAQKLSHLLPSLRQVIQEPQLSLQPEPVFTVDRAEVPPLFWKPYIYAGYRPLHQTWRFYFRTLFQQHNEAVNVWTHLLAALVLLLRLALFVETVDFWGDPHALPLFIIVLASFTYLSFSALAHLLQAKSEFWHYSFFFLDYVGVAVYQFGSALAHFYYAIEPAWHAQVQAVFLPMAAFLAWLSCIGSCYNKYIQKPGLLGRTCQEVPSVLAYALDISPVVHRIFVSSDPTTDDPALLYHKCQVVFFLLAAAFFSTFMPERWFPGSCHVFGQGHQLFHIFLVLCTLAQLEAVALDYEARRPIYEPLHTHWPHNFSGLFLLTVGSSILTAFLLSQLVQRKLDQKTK
UniProt Q6QHF9: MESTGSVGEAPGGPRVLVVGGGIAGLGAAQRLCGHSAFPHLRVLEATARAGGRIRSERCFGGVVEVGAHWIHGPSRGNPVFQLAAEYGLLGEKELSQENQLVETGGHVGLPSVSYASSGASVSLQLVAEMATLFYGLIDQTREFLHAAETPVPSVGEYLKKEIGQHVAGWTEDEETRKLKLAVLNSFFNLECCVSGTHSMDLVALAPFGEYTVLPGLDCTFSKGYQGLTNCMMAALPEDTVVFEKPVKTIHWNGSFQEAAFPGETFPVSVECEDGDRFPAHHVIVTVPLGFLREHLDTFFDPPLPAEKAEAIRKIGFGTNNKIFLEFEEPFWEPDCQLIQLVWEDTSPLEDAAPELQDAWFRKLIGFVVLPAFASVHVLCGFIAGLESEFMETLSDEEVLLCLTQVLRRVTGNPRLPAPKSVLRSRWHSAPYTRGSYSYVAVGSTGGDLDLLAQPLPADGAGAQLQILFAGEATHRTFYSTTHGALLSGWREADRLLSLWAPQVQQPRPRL
UniProt Q8N7B6: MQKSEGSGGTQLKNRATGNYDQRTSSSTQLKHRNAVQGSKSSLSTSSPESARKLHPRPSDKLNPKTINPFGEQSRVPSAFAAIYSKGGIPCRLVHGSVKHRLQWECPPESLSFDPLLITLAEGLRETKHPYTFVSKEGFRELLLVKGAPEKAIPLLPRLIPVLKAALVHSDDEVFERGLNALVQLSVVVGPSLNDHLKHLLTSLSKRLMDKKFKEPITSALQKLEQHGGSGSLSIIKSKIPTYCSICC
UniProt Q9UBD5: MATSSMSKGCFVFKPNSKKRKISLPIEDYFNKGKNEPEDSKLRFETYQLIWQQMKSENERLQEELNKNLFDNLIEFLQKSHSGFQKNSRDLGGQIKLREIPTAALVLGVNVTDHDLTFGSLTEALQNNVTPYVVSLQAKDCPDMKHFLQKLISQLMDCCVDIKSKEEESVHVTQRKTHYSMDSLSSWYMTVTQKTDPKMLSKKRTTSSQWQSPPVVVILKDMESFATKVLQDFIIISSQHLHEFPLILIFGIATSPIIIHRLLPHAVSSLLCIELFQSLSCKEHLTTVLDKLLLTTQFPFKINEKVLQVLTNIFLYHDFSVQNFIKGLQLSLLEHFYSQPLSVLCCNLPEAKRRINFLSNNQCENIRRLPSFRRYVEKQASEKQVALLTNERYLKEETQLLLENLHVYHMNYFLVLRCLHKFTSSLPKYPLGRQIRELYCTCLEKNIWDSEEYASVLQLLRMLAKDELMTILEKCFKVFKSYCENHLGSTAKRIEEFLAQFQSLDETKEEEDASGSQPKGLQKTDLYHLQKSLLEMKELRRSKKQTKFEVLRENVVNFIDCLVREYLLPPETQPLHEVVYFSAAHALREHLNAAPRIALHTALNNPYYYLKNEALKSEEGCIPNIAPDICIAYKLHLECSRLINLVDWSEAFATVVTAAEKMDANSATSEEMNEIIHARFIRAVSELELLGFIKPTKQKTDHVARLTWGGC

Assays:
Experiment in all cases: log2 fold change, soluble protein after heating vs DMSO (PISA); higher = thermal stabilisation; K562 lysate, 10 uM; active = over 0.2 and 3.5 SD of the protein, either way, in both replicates (recomputed)
lapatinib = compound: CS(=O)(=O)CCNCc1ccc(-c2ccc3ncnc(Nc4ccc(OCc5cccc(F)c5)c(Cl)c4)c3c2)o1 [lapatinib]
Method in brief: (§1)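 K562 pellets were dounce-homogenised in PBS pH 7.4 with 1 mM MgCl2, and the crude extract at 1 mg/mL protein was treated with 10 μM compound for 30 min. Aliquots were heated for 3 min across 48°C-58°C, pooled, and brought to 0.5% NP-40 at 4°C; soluble protein was the supernatant after 21,000xg for 90 min. Soluble protein was quantified by TMTpro 16plex LC-MS/MS with channel sums equalised, and reported as log2 fold change in thermal stability against DMSO controls, with values from duplicates.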

pictilisib = compound: CS(=O)(=O)N1CCN(Cc2cc3nc(-c4cccc5[nH]ncc45)nc(N4CCOCC4)c3s2)CC1 [pictilisib]
Method in brief: as §1

crizotinib = compound: C[C@@H](Oc1cc(-c2cnn(C3CCNCC3)c2)cnc1N)c1c(Cl)ccc(F)c1Cl [crizotinib]
Method in brief: as §1

[1] = compound: C[C@H](C1=CC=C(C=C1)C(=O)NC2=C3C=CNC3=NC=C2)N
Method in brief: as §1

duvelisib = compound: C[C@H](Nc1ncnc2nc[nH]c12)c1cc2cccc(Cl)c2c(=O)n1-c1ccccc1 [duvelisib]
Method in brief: as §1

gandotinib = compound: Cc1cc(Nc2cc(CN3CCOCC3)c3nc(C)c(Cc4ccc(Cl)cc4F)n3n2)n[nH]1 [gandotinib]
Method in brief: as §1

doramapimod = compound: Cc1ccc(-n2nc(C(C)(C)C)cc2NC(=O)Nc2ccc(OCCN3CCOCC3)c3ccccc23)cc1 [doramapimod]
Method in brief: as §1

bafetinib = compound: Cc1ccc(NC(=O)c2ccc(CN3CC[C@H](N(C)C)C3)c(C(F)(F)F)c2)cc1Nc1nccc(-c2cncnc2)n1 [bafetinib]
Method in brief: as §1

[2] = compound: Cc1cccc(CC(=O)N2CCc3c2ccc(-c2cn(C)c4ncnc(N)c24)c3F)n1
Method in brief: as §1

nilotinib = compound: Cc1cn(-c2cc(NC(=O)c3ccc(C)c(Nc4nccc(-c5cccnc5)n4)c3)cc(C(F)(F)F)c2)cn1 [nilotinib]
Method in brief: as §1

[3] = compound: Cc1nc(Nc2n[nH]c3c2CN(C(=O)N[C@H](CN(C)C)c2ccccc2)C3(C)C)c2sccc2n1
Method in brief: as §1

dasatinib = compound: Cc1nc(Nc2ncc(C(=O)Nc3c(C)cccc3Cl)s2)cc(N2CCN(CCO)CC2)n1 [dasatinib]
Method in brief: as §1

[4] = compound: Cc1ncc(-c2ccnc(Nc3ccc(S(C)(=O)=O)cc3)n2)n1C(C)C
Method in brief: as §1

[5] = compound: Cn1cc(-c2ccc3c(c2)CCN3C(=O)Cc2cccc(C(F)(F)F)c2)c2c(N)ncnc21
Method in brief: as §1

quisinostat = compound: Cn1cc(CNCC2CCN(c3ncc(C(=O)NO)cn3)CC2)c2ccccc21 [quisinostat]
Method in brief: as §1

tipifarnib = compound: Cn1cncc1[C@@](N)(c1ccc(Cl)cc1)c1ccc2c(c1)c(-c1cccc(Cl)c1)cc(=O)n2C [tipifarnib]
Method in brief: as §1

[6] = compound: NC(=O)Nc1cc(-c2cccc(F)c2)sc1C(=O)N[C@H]1CCCNC1
Method in brief: as §1

[7] = compound: NC(=O)c1cnc(N[C@@H]2CCCC[C@@H]2N)nc1Nc1cccc(-n2nccn2)c1
Method in brief: as §1

[8] = compound: NC1(c2ccc(-c3nc4ccn5c(=O)[nH]nc5c4cc3-c3ccccc3)cc2)CCC1
Method in brief: as §1

tozasertib = compound: Cc1cc(Nc2cc(N3CCN(C)CC3)nc(Sc3ccc(NC(=O)C4CC4)cc3)n2)n[nH]1 [tozasertib]
Method in brief: as §1

Measured: log2 fold change

OSBPL1A (UniProt Q9BXW6)
inactive: lapatinib -0.035 | pictilisib -0.051 | crizotinib -0.014 | [1] -0.079 | duvelisib 0.072 | gandotinib 0.069 | doramapimod 0.019 | bafetinib -0.077 | [2] 0.102 | nilotinib -0.07 | [3] -0.02 | dasatinib -0.044 | [4] -0.051 | [5] -0.027 | quisinostat -0.147 | tipifarnib 0.015 | [6] 0 | [7] -0.024
active: [8] -0.388

OSBPL9 (UniProt E9PLH0)
inactive: pictilisib 0.105 | bafetinib -0.123 | [8] -0.007

OAF (UniProt Q86UD1)
inactive: duvelisib -0.23 | dasatinib -0.301 | [5] 0.066 | [8] -0.049

OXLD1 (UniProt Q5BKU9)
inactive: lapatinib 0.044 | crizotinib -0.051 | doramapimod 0.023 | nilotinib -0.013 | [3] -0.036 | [4] 0.399 | quisinostat -0.074 | tipifarnib -0.104 | [6] -0.02 | [7] -0.026

PACS2 isoform 2 (UniProt Q86VP3)
inactive: crizotinib -0.066 | [1] 0.128 | gandotinib -0.131 | tozasertib -0.018 | doramapimod 0.134 | [2] 0.158 | quisinostat -0.234 | [6] -0.028 | [8] 0.035

PALM isoform 2 (UniProt O75781)
inactive: [8] 0.059

OXR1 isoform 2 (UniProt Q8N573)
inactive: [1] 0.064 | gandotinib -0.123 | [2] -0.215

NXT2 isoform 3 (UniProt Q9NPJ8)
inactive: lapatinib -0.014 | [1] -0.102 | gandotinib -0.082 | [2] 0.014 | [7] 0.097

ORC1 (UniProt Q13415)
inactive: tozasertib 0.023

ORMDL3 (UniProt Q8N138)
inactive: lapatinib -0.112 | crizotinib -0.008 | duvelisib 0.19 | doramapimod -0.19 | dasatinib -0.263 | [5] -0.107 | quisinostat -0.093 | [6] -0.069 | [7] -0.107

Quoted at random: two records from the list, in no set order.
OXR1 isoform 2 (UniProt Q8N573)
inactive: [1] 0.064 | gandotinib -0.123 | [2] -0.215

PALM isoform 2 (UniProt O75781)
inactive: [8] 0.059

(further entries)

ORMDL1 (UniProt Q9P0S3)
inactive: pictilisib 0.072 | crizotinib -0.115 | [1] -0.275 | duvelisib -0.121 | gandotinib -0.052 | doramapimod 0.087 | bafetinib 0.251 | [2] -0.051 | nilotinib -0.047 | [3] -0.155 | dasatinib -0.144 | [4] 0.067 | [5] 0.054 | quisinostat -0.085 | tipifarnib 0.04 | [6] 0.003 | [8] 0.016

PAPOLG (UniProt Q9BWT3)
inactive: crizotinib -0.139 | [1] -0.026 | duvelisib 0.02 | gandotinib -0.002 | tozasertib -0.027 | doramapimod 0.017 | [2] 0.067 | nilotinib 0.025 | [3] -0.025 | dasatinib -0.023 | [4] 0.031 | [5] 0.079 | quisinostat -0.056 | tipifarnib 0.079 | [6] -0.054 | [8] 0.445

P4HB (UniProt I3L0S0)
inactive: lapatinib -0.215 | [7] -0.049

OBSCN isoform 6 (UniProt Q5VST9)
inactive: lapatinib -0.175 | [7] -0.012 | [8] 0.079

OS9 isoform 7 (UniProt Q13438)
inactive: [1] 0.117 | gandotinib -0.127 | [2] 0.045 | [8] 0.153

NXF2 (UniProt Q9GZY0)
inactive: [1] 0.136 | duvelisib 0.018 | gandotinib -0.148 | [2] -0.043 | dasatinib -0.003 | [5] 0.1 | [8] 0.149

OCIAD1 (UniProt D6RDK6)
inactive: lapatinib -0.116 | tozasertib 0.14 | nilotinib -0.131 | [3] 0.037 | [4] -0.095 | tipifarnib 0.028 | [7] -0.023

OGDH isoform 2 (UniProt Q02218)
inactive: [1] -0.1 | gandotinib -0.06 | [2] -0.04

ODF2 (UniProt Q5BJF6)
inactive: pictilisib 0 | crizotinib -0.099 | [1] -0.163 | duvelisib -0.044 | gandotinib -0.244 | tozasertib 0.099 | doramapimod 0.005 | bafetinib -0.019 | [2] 0.136 | nilotinib -0.094 | [3] -0.091 | dasatinib -0.047 | [4] 0.133 | [5] 0.007 | quisinostat 0 | tipifarnib 0.024 | [6] 0.019 | [8] 0.029

P3H3 (UniProt Q8IVL6)
inactive: duvelisib -0.045 | dasatinib 0.039 | [5] -0.162 | [8] 0.16

OFD1 (UniProt O75665)
inactive: pictilisib -0.071 | [1] -0.019 | duvelisib -0.059 | gandotinib -0.064 | tozasertib -0.038 | bafetinib -0.109 | [2] 0.192 | nilotinib -0.201 | [3] -0.119 | dasatinib 0.008 | [4] 0.157 | [5] 0.162 | tipifarnib 0.35

PARD3B (UniProt Q8TEW8)
inactive: [1] -0.197 | duvelisib 0.024 | gandotinib 0.074 | [2] 0.042 | dasatinib 0.051 | [5] -0.095 | [8] 0.174

Copied from the results shown (2 entries):
P3H3 (UniProt Q8IVL6)
inactive: duvelisib -0.045 | dasatinib 0.039 | [5] -0.162 | [8] 0.16

OFD1 (UniProt O75665)
inactive: pictilisib -0.071 | [1] -0.019 | duvelisib -0.059 | gandotinib -0.064 | tozasertib -0.038 | bafetinib -0.109 | [2] 0.192 | nilotinib -0.201 | [3] -0.119 | dasatinib 0.008 | [4] 0.157 | [5] 0.162 | tipifarnib 0.35

(cont.)

P4HA1 isoform 2 (UniProt P13674)
inactive: pictilisib -0.033 | crizotinib 0.008 | [1] -0.083 | gandotinib 0.044 | tozasertib -0.048 | doramapimod 0.011 | bafetinib 0.033 | [2] 0.058 | quisinostat 0.061 | [6] 0.019 | [8] 0.028

OAS3 (UniProt Q9Y6K5)
inactive: lapatinib -0.179 | crizotinib 0.19 | tozasertib 0.05 | doramapimod 0.096 | nilotinib -0.206 | [3] -0.004 | [4] 0 | quisinostat 0.083 | tipifarnib -0.097 | [6] 0.085 | [7] -0.109 | [8] 0.199

PAQR7 (UniProt Q86WK9)
inactive: [8] -0.075

PAOX (UniProt Q6QHF9)
inactive: pictilisib -0.028 | crizotinib -0.032 | doramapimod -0.043 | bafetinib -0.018 | quisinostat -0.007 | [6] -0.02

ORC6 (UniProt Q9Y5N6)
inactive: pictilisib -0.056 | crizotinib 0.016 | [1] 0.214 | duvelisib -0.035 | gandotinib -0.19 | tozasertib 0.012 | doramapimod 0.057 | bafetinib -0.049 | [2] -0.226 | nilotinib 0.032 | [3] 0 | dasatinib 0.04 | [4] -0.014 | [5] -0.02 | quisinostat -0.032 | tipifarnib 0.032 | [6] 0.024 | [8] 0.056

PACRGL (UniProt Q8N7B6)
inactive: crizotinib -0.062 | [1] -0.078 | duvelisib -0.246 | gandotinib 0.017 | tozasertib 0.069 | doramapimod 0.03 | [2] -0.017 | dasatinib 0.021 | [5] 0.205 | quisinostat 0.047 | [6] -0.422

OPA3 isoform 2 (UniProt Q9H6K4)
inactive: crizotinib -0.041 | duvelisib -0.048 | doramapimod -0.068 | dasatinib -0.146 | [5] -0.044 | quisinostat 0.045 | [6] 0.001

PAQR4 (UniProt Q8N4S7)
inactive: [8] 0.074

ORC3 (UniProt Q9UBD5)
inactive: lapatinib 0.213 | [1] 0.129 | gandotinib -0.311 | [2] 0.082 | nilotinib 0.038 | [3] -0.062 | [4] 0.059 | tipifarnib -0.084 | [7] -0.053

NUP214, A0A494C1F2
inactive: [8] 0.026

PAN3 (UniProt Q58A45)
inactive: crizotinib -0.085 | doramapimod 0.005 | nilotinib 0.129 | [3] 0.035 | [4] 0.373 | quisinostat 0.012 | tipifarnib -0.108 | [6] -0.052

OXR1 isoform 7 (UniProt Q8N573)
inactive: [1] 0.062 | gandotinib 0.014 | [2] 0.038

OGG1 isoform 4 (UniProt O15527)
inactive: duvelisib 0.229 | tozasertib -0.02 | dasatinib -0.389 | [5] -0.123 | [8] 0.063
